{"source": "patent US20160096865", "about": "(published 2016)", "assay": "general procedure: Fmoc solid-phase peptide synthesis; 2-chlorotrityl resin; HBTU/DIEA", "details": "whole synthesis, scale of the general procedure 0.25 mmol"}
{"substance": "H-Pro-Pro-Asp(OtBu)-Lys-NH2 silane hybrid", "values": [{"measurement": "purity (crude or final not stated)", "result": "greater than 95%"}]}
